Measured values: article PMC4714548

Key:
[1] = molecular target: T1, canonical transient receptor potential (TRPC) 1 (rabbit (endogenous in portal vein VSMCs)) (UniProt Q9TUN9); assay: proximity ligation; Duolink in situ PLA on fixed, permeabilised VSMCs pretreated with 50 µM BAPTA-AM for 10 min (also with scrambled or PLCβ1 shRNA); anti-TRPC1, anti-Gαq and anti-PLCβ1 antibodies at 1:200
T1 sequence: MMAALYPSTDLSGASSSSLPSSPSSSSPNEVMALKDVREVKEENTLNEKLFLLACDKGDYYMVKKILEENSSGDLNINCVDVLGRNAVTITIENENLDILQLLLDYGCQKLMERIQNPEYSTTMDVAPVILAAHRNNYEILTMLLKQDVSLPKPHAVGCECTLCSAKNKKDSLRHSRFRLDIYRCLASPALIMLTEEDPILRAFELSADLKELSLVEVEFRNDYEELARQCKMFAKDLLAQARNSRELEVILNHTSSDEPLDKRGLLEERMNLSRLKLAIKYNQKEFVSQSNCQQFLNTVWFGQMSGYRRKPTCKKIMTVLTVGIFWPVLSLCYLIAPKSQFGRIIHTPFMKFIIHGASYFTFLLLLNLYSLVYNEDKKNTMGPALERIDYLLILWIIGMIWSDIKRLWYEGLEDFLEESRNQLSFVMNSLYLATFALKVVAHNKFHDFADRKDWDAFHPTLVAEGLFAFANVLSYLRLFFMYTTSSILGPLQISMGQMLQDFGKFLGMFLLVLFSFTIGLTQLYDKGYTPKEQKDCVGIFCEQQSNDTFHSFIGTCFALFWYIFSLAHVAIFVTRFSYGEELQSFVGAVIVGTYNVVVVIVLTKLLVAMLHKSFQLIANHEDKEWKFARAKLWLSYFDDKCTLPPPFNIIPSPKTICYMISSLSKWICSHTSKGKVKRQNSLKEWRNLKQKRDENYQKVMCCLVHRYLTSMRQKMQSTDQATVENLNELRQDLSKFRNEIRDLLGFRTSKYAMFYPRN

[2] = molecular target: T1, canonical transient receptor potential (TRPC) 1 (rabbit (endogenous in portal vein VSMCs)); assay: co-IP; Supplemental Fig. S2C: freshly isolated vessel segments pretreated with 10 µM CPA; RIPA lysates; the PLCγ1 control was done with BAPTA-AM and with CPA
[3] = molecular target: T1, canonical transient receptor potential (TRPC) 1 (rabbit (endogenous in portal vein VSMCs)); assay: co-IP; primary cultured rabbit portal vein VSMCs pretreated with 50 µM BAPTA-AM for 10 min (also with scrambled or PLCβ1 shRNA); RIPA lysates; IP with anti-TRPC1 antibodies, Western blot with anti-Gαq or anti-PLCβ1
[4] = molecular target: T1, canonical transient receptor potential (TRPC) 1 (rabbit (endogenous in portal vein VSMCs)); assay: condition: only unstimulated vessel segments (no store depletion); co-IP; Supplemental Fig. S2C: unstimulated freshly isolated vessel segments; RIPA lysates
[5] = molecular target: T1, canonical transient receptor potential (TRPC) 1 (rabbit (endogenous in portal vein VSMCs)); assay: proximity ligation; Duolink in situ PLA on fixed, permeabilised resting VSMCs; anti-TRPC1, anti-Gαq and anti-PLCβ1 antibodies at 1:200
[6] = molecular target: T1, canonical transient receptor potential (TRPC) 1 (rabbit (endogenous in portal vein VSMCs)); assay: condition: only unstimulated cells (no store depletion); co-IP; unstimulated primary cultured rabbit portal vein VSMCs; RIPA lysates; IP with anti-TRPC1 antibodies, Western blot with anti-Gαq or anti-PLCβ1

| binding [1] | binding [2] | binding [3] | binding [4] | binding [6] | Substance | binding [5] |
| --- | --- | --- | --- | --- | --- | --- |
| binds | binds | binds | no binding | no binding | PLCβ1 (rabbit (endogenous in portal vein VSMCs)) (enzyme) | no binding (only resting cells (no store depletion)) |
|  | no binding |  |  |  | PLCγ1 (rabbit (endogenous in portal vein VSMCs)) (enzyme) |  |

Results are given in words; binding and its absence hold for the method and conditions named. In cells and extracts the contact can be indirect. For some of these results: Binding can be weak; no strength is given.
